≈ marks a conversion by molar mass, not a printed value.
Columns and labels:
Vibrio fischeri = test: microbe, parasite or virus in culture; type: cell-based; settings: Aliivibrio fischeri
Procedure: (§1) Stock solutions and dilutions were prepared in 2% NaCl in 0.02 M phosphate buffer, pH 7. The freeze-dried bacteria were rehydrated prior to testing in a reactivation solution. Culture suspensions and diluted samples were pre-incubated at 15 °C for 15 min. After the initial luminescence was measured, 0.5 mL of the culture suspension was mixed with the same volume of a diluted sample. The final bioluminescence was measured after 30 min. Incubation was kept at 15 °C (LUMIStox 300 meter, Dr. Lange GmbH, Berlin, Germany). The relative toxicity of the samples was expressed as a percentage of luminescence inhibition compared to the controls.
as §1, with “m,” for “meter,”

Daphnia magna = test: D. magna acute immobilization test; type: in vivo; settings: 48 h, read-out: EC50 D. magna (with confidence interval 2.5–97.5%)
Procedure: (§2) All tests were carried out in accordance with the OECD or ISO guidelines. In general the experimental part was divided into three main steps: (i) determination of the toxicity of the native forms of pharmaceuticals (their racemic mixtures), (ii) toxicity evaluation of the selected TPs of these pharmaceuticals, and (iii) preliminary toxicity assessment of the enantiomers of selected pharmaceuticals. For each assay, range-finding tests were conducted, in order to determine the range of concentrations for the definitive tests. The main tests were repeated three times in at least two parallel replicates, with a minimum of five concentrations for native forms of the selected pharmaceuticals (including their enantiomers). The exact number of replicates and concentrations tested was included in the description of each test. […] However, TPs were tested in a different manner; first, the tests were carried out at the limit concentration of 100 mg L^−1. […] Such approach was applied in order to observe the relative toxicity of the selected TP and its native form.
Dose-response curves were fitted using a linear logistic or logistic model (the model giving the best fit was chosen) (https://cran.r-project.org/web/packages/drfit/drfit.pdf). The mathematic formulas applied for this purpose are presented and described in the Supplementary Material. […]

Lemna minor = test: L. minor growth inhibition test
Procedure: All tests were carried out in accordance with the OECD or ISO guidelines. In general the experimental part was divided into three main steps: (i) determination of the toxicity of the native forms of pharmaceuticals (their racemic mixtures), (ii) toxicity evaluation of the selected TPs of these pharmaceuticals, and (iii) preliminary toxicity assessment of the enantiomers of selected pharmaceuticals. For each assay, range-finding tests were conducted, in order to determine the range of concentrations for the definitive tests. The main tests were repeated three times in at least two parallel replicates, with a minimum of five concentrations for native forms of the selected pharmaceuticals (including their enantiomers). The exact number of replicates and concentrations tested was included in the description of each test. […] However, TPs were tested in a different manner; first, the tests were carried out at the limit concentration of 100 mg L^−1. […]
One week before the assay, the inoculum cultures were prepared; eight healthy plants were placed into a new portion of the medium. […] The test started with one plant consisting of three fronds and the measured endpoint was the inhibition of growth rate determined by comparing the frond area (mm^2) for the treated plants and untreated controls.

Raphidocelis subcapitata = test: R. subcapitata reproduction (growth) inhibition test; type: cell-based
Procedure: as §2, with “form. […]” for “form.”
Test organisms were provided from Algal Culture Collection (Universität Göttingen, Germany). […] Growth inhibition was calculated using the cell counts of the treated samples in relation to the untreated controls after 72 h of exposure. The cells were counted with the use of CASY TT Cell counter & analyzer.

Arthrobacter globiformis = test: A. globiformis dehydrogenase inhibition test (version without soil); settings: read-out: EC50 A. globiformis
Procedure: All tests were carried out in accordance with the OECD or ISO guidelines. In general the experimental part was divided into three main steps: (i) determination of the toxicity of the native forms of pharmaceuticals (their racemic mixtures), (ii) toxicity evaluation of the selected TPs of these pharmaceuticals, and (iii) preliminary toxicity assessment of the enantiomers of selected pharmaceuticals. For each assay, range-finding tests were conducted, in order to determine the range of concentrations for the definitive tests. The main tests were repeated three times in at least two parallel replicates, with a minimum of five concentrations for native forms of the selected pharmaceuticals (including their enantiomers). The exact number of replicates and concentrations tested was included in the description of each test. […]
The test strain was obtained from the German Collection of Microorganisms (DSMZ). […] Finally, the dehydrogenase activity was determined by measuring the formation of resorufin from resazurine using a fluorimeter ([…]). Dehydrogenase inhibition was calculated using Eq. 1.
where FBTS is the measured fluorescence of the blank (medium) with the tested substance, FTS is the measured fluorescence of the sample, FBNC is the measured fluorescence of the blank, and FNC is the measured fluorescence of the negative control (with bacteria).

aquatic organisms = settings: for the organisms named in the sentence
D. magna = settings: cited from earlier work
R. subcapitata = settings: ref Romanucci et al. (2019); cited from earlier work

SMILES: COc1cccc(C2(O)CCCCC2CN(C)C)c1 (stereo not drawn) [TRA, Tramadol]
- EC50 (Vibrio fischeri; 0.5 h, read-out: EC50 V. fischeri (with confidence interval 2.5–97.5%)): > 100 µg/mL
- inhibition at 100 µg/mL (Vibrio fischeri; read-out: Luminescence inhibition): 1%
- EC50 (Daphnia magna): 69.7 µg/mL (≈ 265 µM)
- EC50 (Lemna minor; 168 h, read-out: EC50 L. minor (with confidence interval 2.5–97.5%)): > 100 µg/mL
- inhibition at 100 µg/mL (Lemna minor; read-out: Growth inhibition of L. minor): 2%
- EC50 (Raphidocelis subcapitata; 72 h, read-out: EC50 R. subcapitata (with confidence interval 2.5–97.5%)): 58.7 µg/mL (≈ 223 µM)
- inhibition at 100 µg/mL (Raphidocelis subcapitata; read-out: Growth inhibition of R. subcapitata): 93%
- EC50 (Arthrobacter globiformis): > 100 µg/mL
- classification on the basis of EC50 values (EC 93/67/EEC) (aquatic organisms): harmful
- EC50, 24h D. magna (D. magna; 24 h, ref Romanucci et al. (2019)): 88.5 µg/mL (≈ 336 µM)
- EC50 D. magna (D. magna; ref Le et al. (2011)): 170 µg/mL (≈ 645 µM)
- EC50 R. subcapitata (R. subcapitata): 87.1 µg/mL (≈ 331 µM)

Source: PMC7332481, “Ecotoxicity screening evaluation of selected pharmaceuticals and their transformation products towards various organisms” (Environmental Science and Pollution Research International, 2020)
